# Measurements as given in the supplement of paper PMC7666118.
# Amino acid sequences for entries named in this document (tags omitted). A change or cut given only in a name is not applied to a line headed by its entry.
# UniProt Q5JUR7: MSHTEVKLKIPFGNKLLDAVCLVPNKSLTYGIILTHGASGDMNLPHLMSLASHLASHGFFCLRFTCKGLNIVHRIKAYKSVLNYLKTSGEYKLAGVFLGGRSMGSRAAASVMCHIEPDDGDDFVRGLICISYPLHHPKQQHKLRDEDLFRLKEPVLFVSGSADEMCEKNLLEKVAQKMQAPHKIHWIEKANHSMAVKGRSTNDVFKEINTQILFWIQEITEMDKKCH
# UniProt Q6IBS0: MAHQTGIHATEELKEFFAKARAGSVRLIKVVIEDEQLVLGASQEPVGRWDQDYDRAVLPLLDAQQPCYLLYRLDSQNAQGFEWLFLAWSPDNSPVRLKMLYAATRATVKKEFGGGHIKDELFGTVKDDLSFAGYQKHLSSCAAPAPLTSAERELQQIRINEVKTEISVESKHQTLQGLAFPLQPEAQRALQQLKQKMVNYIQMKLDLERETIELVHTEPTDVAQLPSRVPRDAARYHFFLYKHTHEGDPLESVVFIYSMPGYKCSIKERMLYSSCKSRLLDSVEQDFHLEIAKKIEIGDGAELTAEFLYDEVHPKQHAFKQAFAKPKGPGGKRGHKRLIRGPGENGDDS
# UniProt Q96DX7: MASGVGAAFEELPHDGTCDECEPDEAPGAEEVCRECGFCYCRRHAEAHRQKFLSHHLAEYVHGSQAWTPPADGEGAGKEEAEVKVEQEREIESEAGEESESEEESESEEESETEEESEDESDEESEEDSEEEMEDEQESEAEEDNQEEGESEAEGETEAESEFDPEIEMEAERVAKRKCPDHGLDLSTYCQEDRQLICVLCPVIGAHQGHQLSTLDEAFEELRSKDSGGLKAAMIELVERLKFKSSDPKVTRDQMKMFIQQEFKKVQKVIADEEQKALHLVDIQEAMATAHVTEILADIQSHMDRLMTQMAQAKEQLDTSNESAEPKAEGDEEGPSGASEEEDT
# UniProt P10599: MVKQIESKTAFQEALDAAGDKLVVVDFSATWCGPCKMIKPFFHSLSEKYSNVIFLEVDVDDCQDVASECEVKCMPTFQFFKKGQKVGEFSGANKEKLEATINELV
# UniProt Q86VY4: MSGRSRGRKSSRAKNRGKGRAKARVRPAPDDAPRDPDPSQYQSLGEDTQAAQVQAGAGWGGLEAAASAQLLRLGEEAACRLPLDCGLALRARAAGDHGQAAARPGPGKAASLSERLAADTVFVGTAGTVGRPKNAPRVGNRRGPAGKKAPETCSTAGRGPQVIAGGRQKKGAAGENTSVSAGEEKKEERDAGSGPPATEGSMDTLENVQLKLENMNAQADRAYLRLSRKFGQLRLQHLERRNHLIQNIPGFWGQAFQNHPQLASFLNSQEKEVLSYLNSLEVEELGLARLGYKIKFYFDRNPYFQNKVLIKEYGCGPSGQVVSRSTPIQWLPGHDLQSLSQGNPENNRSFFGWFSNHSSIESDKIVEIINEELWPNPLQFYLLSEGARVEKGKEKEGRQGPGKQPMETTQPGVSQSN
# UniProt Q9UJK0: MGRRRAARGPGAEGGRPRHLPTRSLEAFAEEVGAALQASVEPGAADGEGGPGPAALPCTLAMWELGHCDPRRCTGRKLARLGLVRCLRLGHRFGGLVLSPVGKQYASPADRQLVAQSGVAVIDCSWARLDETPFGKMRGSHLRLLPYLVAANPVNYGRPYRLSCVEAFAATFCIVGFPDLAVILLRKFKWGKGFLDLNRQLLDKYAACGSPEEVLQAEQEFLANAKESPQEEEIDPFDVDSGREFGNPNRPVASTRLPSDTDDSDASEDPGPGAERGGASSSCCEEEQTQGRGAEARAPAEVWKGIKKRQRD
# UniProt P52888, whole entry: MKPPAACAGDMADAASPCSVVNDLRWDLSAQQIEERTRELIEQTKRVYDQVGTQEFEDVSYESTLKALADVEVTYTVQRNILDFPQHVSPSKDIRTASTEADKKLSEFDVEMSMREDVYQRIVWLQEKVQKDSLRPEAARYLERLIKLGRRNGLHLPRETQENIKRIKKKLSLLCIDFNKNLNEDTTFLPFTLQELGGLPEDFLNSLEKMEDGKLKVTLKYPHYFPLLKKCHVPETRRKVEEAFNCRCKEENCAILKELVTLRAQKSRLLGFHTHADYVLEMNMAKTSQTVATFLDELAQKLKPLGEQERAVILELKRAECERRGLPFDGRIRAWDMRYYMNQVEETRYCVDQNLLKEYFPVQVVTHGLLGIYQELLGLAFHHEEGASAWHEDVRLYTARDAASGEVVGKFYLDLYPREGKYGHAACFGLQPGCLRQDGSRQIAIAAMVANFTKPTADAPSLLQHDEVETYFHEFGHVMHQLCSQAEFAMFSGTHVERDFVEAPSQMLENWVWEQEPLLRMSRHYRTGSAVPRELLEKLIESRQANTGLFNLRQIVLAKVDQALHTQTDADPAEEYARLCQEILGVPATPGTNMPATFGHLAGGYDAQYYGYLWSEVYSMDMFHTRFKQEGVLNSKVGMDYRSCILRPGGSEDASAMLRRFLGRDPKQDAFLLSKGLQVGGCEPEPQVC
# UniProt Q9NUY8: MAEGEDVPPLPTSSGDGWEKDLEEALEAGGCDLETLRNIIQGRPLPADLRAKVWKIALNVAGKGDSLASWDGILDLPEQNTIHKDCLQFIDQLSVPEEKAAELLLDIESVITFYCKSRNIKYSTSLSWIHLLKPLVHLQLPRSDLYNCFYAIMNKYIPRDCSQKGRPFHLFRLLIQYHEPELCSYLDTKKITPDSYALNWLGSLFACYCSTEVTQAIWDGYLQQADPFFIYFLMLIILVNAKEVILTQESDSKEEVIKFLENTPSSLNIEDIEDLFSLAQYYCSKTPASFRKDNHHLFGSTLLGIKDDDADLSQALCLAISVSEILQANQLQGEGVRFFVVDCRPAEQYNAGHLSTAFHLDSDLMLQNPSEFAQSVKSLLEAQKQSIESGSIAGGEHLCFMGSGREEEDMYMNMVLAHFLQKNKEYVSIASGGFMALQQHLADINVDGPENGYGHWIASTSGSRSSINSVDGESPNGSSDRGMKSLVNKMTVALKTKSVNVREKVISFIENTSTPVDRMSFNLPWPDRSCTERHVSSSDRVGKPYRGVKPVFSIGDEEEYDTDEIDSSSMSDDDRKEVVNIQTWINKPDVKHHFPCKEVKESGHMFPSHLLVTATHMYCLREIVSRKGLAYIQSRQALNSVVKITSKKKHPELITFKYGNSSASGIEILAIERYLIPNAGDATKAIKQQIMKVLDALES
# UniProt Q6NXR4: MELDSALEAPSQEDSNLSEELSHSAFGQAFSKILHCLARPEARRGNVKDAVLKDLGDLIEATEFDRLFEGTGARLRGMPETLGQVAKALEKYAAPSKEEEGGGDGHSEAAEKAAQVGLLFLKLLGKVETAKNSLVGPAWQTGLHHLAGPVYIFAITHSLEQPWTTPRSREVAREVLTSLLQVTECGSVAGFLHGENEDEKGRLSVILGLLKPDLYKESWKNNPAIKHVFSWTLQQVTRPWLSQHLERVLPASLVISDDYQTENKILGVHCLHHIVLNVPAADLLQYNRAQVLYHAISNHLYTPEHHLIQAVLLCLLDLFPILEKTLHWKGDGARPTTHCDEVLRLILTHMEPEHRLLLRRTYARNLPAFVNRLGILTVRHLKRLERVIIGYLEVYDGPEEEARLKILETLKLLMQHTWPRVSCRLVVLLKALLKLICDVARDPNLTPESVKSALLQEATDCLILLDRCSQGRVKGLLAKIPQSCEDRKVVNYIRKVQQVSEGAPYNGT
# UniProt P51580: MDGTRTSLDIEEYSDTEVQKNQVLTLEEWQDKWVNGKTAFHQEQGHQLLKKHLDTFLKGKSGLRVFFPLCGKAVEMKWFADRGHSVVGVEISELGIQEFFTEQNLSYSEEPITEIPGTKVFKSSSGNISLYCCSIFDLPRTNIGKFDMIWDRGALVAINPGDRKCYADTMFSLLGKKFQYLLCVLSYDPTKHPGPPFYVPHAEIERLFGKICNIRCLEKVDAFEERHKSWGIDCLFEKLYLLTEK
# UniProt P49815: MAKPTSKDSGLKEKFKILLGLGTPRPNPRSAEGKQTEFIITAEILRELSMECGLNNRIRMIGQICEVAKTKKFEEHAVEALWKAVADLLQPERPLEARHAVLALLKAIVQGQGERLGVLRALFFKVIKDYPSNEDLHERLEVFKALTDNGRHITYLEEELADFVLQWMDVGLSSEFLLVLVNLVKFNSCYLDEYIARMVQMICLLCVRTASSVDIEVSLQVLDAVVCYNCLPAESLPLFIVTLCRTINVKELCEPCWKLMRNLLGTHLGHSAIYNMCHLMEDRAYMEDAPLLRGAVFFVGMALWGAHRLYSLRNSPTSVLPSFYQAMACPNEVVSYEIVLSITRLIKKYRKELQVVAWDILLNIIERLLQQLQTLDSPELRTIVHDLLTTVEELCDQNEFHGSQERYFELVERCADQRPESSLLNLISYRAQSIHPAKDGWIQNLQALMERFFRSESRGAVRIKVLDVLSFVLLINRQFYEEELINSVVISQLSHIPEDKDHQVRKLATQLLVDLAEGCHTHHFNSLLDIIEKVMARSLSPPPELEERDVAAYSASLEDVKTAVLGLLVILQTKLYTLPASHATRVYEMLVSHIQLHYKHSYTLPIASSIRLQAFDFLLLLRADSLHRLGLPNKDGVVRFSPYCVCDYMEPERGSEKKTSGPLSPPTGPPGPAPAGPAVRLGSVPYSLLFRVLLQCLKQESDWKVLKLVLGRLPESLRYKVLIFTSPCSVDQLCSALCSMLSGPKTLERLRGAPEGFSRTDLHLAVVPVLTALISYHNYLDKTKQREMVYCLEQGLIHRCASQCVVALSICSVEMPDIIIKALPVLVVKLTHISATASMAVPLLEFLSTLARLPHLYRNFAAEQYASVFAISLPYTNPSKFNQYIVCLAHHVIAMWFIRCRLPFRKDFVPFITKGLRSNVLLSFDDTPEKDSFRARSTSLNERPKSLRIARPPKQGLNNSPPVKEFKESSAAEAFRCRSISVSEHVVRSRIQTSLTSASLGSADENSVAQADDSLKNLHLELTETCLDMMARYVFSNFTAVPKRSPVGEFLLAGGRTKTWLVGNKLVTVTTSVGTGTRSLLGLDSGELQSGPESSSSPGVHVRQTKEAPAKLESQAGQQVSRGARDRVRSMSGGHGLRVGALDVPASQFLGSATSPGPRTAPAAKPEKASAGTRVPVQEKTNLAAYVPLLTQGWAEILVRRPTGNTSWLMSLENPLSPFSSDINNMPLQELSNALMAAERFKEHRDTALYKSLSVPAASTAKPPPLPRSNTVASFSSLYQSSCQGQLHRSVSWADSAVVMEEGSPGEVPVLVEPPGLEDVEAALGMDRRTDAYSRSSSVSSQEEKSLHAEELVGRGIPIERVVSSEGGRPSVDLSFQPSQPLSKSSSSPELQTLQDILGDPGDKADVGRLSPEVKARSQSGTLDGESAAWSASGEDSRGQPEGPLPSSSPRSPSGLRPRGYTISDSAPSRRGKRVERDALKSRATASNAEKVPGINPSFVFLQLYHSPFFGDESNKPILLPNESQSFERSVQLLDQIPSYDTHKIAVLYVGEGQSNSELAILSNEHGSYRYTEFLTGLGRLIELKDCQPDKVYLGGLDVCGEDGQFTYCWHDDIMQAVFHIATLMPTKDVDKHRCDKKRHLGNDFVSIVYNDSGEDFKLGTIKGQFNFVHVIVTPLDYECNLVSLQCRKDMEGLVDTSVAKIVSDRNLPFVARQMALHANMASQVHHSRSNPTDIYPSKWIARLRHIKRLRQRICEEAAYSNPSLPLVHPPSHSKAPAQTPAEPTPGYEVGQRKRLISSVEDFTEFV
# UniProt O14787: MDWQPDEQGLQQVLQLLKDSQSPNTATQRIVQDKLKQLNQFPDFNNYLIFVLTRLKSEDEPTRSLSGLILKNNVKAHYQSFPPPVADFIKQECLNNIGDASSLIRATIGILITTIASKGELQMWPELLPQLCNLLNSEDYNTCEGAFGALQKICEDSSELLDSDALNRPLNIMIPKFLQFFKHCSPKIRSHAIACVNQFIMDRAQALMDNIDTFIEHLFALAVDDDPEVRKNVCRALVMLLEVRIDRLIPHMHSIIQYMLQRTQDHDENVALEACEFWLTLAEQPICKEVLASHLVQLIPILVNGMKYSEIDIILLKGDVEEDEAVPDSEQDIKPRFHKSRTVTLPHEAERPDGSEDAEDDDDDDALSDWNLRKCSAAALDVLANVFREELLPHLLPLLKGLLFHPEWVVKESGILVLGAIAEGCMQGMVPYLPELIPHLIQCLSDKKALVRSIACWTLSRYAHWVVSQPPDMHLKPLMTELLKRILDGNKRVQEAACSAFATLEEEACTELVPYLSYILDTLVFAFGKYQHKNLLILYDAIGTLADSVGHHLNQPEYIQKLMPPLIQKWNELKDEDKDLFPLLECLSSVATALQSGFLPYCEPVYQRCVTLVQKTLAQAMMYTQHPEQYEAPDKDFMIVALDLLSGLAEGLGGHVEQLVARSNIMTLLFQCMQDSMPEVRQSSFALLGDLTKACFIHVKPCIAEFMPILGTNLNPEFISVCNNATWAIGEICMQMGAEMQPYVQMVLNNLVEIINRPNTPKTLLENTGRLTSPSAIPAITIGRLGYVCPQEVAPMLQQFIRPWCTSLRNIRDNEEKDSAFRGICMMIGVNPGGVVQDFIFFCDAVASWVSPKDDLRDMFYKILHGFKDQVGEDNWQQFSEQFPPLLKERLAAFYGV
# This is one part of the list.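 The calls were made as follows: active = dose-dependent thermal stabilisation significant by F-test of dose-response against flat model at 10% FDR; inactive = not significant.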
# Compound: Nc1nc2c(ncn2[C@@H]2O[C@H](COP(=O)(O)OP(=O)(O)OP(=O)(O)O)[C@@H](O)[C@H]2O)c(=O)[nH]1
# Assay: dose-dependent thermal stabilisation call (2D-TPP, DLPTP, 10% FDR) (binary (1 = stabilised)); higher = stabilised by the compound
# Conditions: system: Jurkat gel-filtered lysate; concentration range 1-500 µM
row,Target,dose-dependent thermal stabilisation call
1,TUBE1 (UniProt Q9UJT0),active: 1
2,TEX30 (UniProt Q5JUR7),inactive: 0
3,TRAPPC13 (UniProt A5PLN9),inactive: 0
4,UBA52 (UniProt P62987),inactive: 0
5,TTC27 (UniProt Q6P3X3),inactive: 0
6,TST (UniProt Q16762),inactive: 0
7,UBAP2L (UniProt Q14157),inactive: 0
8,TWF2 (UniProt Q6IBS0),inactive: 0
9,TBC1D9B (UniProt Q66K14),inactive: 0
10,TUBGCP2 (UniProt Q9BSJ2),inactive: 0
11,TBC1D22B (UniProt Q9NU19),inactive: 0
12,TRIM44 (UniProt Q96DX7),inactive: 0
13,U2SURP (UniProt O15042),inactive: 0
14,TXN (UniProt P10599),inactive: 0
15,TSPYL5 (UniProt Q86VY4),inactive: 0
16,TOP3A (UniProt Q13472),inactive: 0
17,TPR (UniProt P12270),inactive: 0
18,TSR3 (UniProt Q9UJK0),inactive: 0

# Reprinted from the results shown (2 entries):
row,Target,dose-dependent thermal stabilisation call
17,TPR (UniProt P12270),inactive: 0
18,TSR3 (UniProt Q9UJK0),inactive: 0

# (further entries)

row,Target,dose-dependent thermal stabilisation call
1,THOP1 (UniProt P52888),inactive: 0
2,TNFAIP8 (UniProt O95379),inactive: 0
3,TBC1D23 (UniProt Q9NUY8),inactive: 0
4,TBCE (UniProt Q15813),active: 1
5,TLE1 (UniProt Q04724),inactive: 0
6,TFG (UniProt Q92734),inactive: 0
7,TSR2 (UniProt Q969E8),inactive: 0
8,TRIM11 (UniProt Q96F44),inactive: 0
9,TMEM263 (UniProt Q8WUH6),inactive: 0
10,THADA (UniProt Q6YHU6),inactive: 0
11,TXLNG (UniProt Q9NUQ3),inactive: 0
12,TTI2 (UniProt Q6NXR4),active: 1
13,TPMT (UniProt P51580),inactive: 0
14,TCP11L1 (UniProt Q9NUJ3),inactive: 0
15,TBCK (UniProt Q8TEA7),inactive: 0
16,TSC2 (UniProt P49815),inactive: 0
17,TNPO2 (UniProt O14787),inactive: 0
18,UBAC1 (UniProt Q9BSL1),inactive: 0
